# Laboratory results from paper PMC3747146 (PLoS ONE, 2013).
# Sequences of proteins named here, by UniProt entry; tags and fusion partners are left off. A change or cut given only in a name is not applied to a line headed by its entry. A line that says so, or that is headed by a name, gives the form on record, which may keep a tag or linker.
# UniProt Q9UDY8: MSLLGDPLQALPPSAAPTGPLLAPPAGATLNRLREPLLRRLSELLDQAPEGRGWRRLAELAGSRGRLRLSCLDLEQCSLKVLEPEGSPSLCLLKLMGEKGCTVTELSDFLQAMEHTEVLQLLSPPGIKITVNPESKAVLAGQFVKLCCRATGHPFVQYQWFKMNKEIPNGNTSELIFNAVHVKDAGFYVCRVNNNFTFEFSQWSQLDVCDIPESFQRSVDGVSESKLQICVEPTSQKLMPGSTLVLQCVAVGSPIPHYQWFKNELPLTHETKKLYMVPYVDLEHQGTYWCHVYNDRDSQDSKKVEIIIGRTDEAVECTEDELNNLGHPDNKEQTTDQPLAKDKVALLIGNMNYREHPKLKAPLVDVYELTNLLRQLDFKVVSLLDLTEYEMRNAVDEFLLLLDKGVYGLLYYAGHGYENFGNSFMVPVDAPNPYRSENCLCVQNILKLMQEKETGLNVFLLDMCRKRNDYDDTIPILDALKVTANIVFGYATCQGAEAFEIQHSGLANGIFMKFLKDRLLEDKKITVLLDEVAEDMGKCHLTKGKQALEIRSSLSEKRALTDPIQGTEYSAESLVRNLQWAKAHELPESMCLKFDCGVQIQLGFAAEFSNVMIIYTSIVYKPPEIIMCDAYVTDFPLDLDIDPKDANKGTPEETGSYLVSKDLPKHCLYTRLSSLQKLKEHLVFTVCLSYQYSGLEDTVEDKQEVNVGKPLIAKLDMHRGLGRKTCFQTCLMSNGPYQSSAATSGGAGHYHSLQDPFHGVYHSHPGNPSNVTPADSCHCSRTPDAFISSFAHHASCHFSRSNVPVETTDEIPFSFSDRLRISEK
# MALT1(Casp-like) C464A, isolated protease domain (Q9UDY8, form named): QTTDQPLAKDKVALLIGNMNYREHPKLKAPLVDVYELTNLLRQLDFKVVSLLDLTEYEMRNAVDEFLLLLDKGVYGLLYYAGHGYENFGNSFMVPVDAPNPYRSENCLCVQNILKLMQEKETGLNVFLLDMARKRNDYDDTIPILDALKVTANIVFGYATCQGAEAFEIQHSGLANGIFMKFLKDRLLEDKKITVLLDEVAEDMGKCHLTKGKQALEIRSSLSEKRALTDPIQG
# These are yes or no findings as the source states them, for the method shown. For part of these data: In cells and extracts the contact can be indirect. Some entries that bind do so weakly or less than the wild type. For part of these data: Where a sequence is shown, tags or fusion partners need not be part of it.
# Assays:
# [1] = target: MALT1(Casp-like) C464A, isolated protease domain (UniProt Q9UDY8); experiment: SEC; data not shown; construct containing only the protease domain, size exclusion chromatography under physiological salt; both purified
# Strep-tagged MALT1 E549A = Strep-tagged MALT1 E549A (UniProt Q9UDY8); experiment: pull-down; Flag-BCL10 and Strep-MALT1 co-expressed in HEK293T cells; StrepTactin sepharose precipitates from lysates (50 mM HEPES pH 7.5, 150 mM NaCl, 1% Triton-X-100), 30 min at 4°C, immunoblot
# [2] = target: Strep-tagged MALT1 wildtype (UniProt Q9UDY8); experiment: as above
binding [1],binding (Strep-tagged MALT1 E549A),binding [2],Molecule
binds,,,"MALT1(Casp-like) C464A, isolated protease domain (from UniProt Q9UDY8 333-566) (domain or fragment)"
,binds,binds,"Flag-tagged BCL10 (protein, UniProt O95999 1-233) MEPTAPSLTEEDLTEVKKDALENLRVYLCEKIIAERHFDHLRAKKILSREDTEEISCRTSSRKRAGKLLDYLQENPKGLDTLVESIRREKTQNFLIQKITDEVLKLRNIKLEHLKGLKCSSCEPFPDGATNNLSRSNSDESNFSEKLRASTVMYHPEGESSTTPFFSTNSSLNLPVLEVGRTENTIFSSTTLPRPGDPGAPPLPPDLQLEEEGTCANSSEMFLPLRSRTVSRQ"
